# In all, about 340,000 compounds went through this assay and about 170 (0.05%) were called active. Inconclusive means that the source gave no clear call. Such entries were picked first, then a sample of the others. Calls come from the whole dose curve; as a rule, active = well fitted inhibition curve with a large enough effect in the signal ratio, with a control signal flat (not every such curve was filed as active); inconclusive = small, poorly fitted or top-dose-only effect, or effect the other way, or a change in a side signal; inactive = flat fitted curve, though single readings scatter; the % refers to the signal ratio. Potencies beside an inconclusive call are fits to weak or partial responses and may not hold up.
# Assay: qHTS Assay to Find Inhibitors of Chronic Active B-Cell Receptor Signaling;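 for activity change, negative = inhibition: plate controls were basal doxycycline-induced cells for no effect and cells given 10 µM MG132 for full effect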
# Conditions: ABC-DLBCL IkBa-CBG/CBR reporter, luminescence ratio (green luciferase fused to IkBa over red control in TMD8 lymphoma cells), 4 h; activity change, negative = inhibition: at 46.1 µM (top of the series)
# Procedure, shortened: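 Compounds up to 46 uM were incubated four hours with TMD8 cells whose green CBG68 luciferase is fused to IkappaBalpha; red CBR luminescence normalised the signal, and concentration-effect curves were fitted to fusion, red and ratio data.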
# Potency is the fitted concentration of half-maximal effect.
SMILES,"activity change, negative = inhibition",Potency
CC(NC(=O)c1ccccc1Cl)C(=O)NCc1cccs1 (centres undefined),inconclusive: 6.63%,
CC(O)/C=C/c1ccc2ccccc2n1 (centres undefined),inconclusive: -11.6%,
COC(=O)c1[nH]c2cccc(OC)c2c1NC(=O)CN1CC(C)OC(C)C1 (centres undefined),inconclusive: -11.2%,
CC(C)c1cccc(C2=CC(=O)C[C@H](c3ccc(F)cc3)C2)c1,inconclusive: 8.73%,
COc1ccc(-c2nc3ccc(C)cn3c2NCc2ccccc2)cc1SC1CCCCC1,inconclusive: -1.37%,
Cc1nnc(SCC(=O)Nc2ccc(N3CCOCC3)cc2)o1,inconclusive: 7.63%,
O=C(OCc1ccccc1)c1ccc2c(c1)-c1ccccc1C2=O,,"inconclusive: 2.06 µM [falling, full curve]"
N#Cc1cnc2cc(-c3ccccc3)nn2c1N,inconclusive: 13.9%,
O=C(O)CCN1C(=O)c2ccc(NC(=O)CSCc3ccccc3)cc2C1=O,inconclusive: 5%,
O=C(C[n+]1cc(Br)cc(Br)c1)c1ccccc1,inactive,
Fc1ccc(-c2csc(-c3ccccn3)n2)cc1F,inconclusive: 21.2%,
Cc1ccc(-c2c3c(nc4sc(C(N)=O)c(N)c24)CCCC3)o1,inconclusive: -0.344%,
CC1=C(C(=O)OC2CCCCC2)C(c2ccc(C)o2)C2=C(CCCC2=O)N1 (centres undefined),inactive,
CN(C)c1cccc(C(=O)OC(C(=O)Nc2ccc([N+](=O)[O-])cc2Br)c2ccccc2)c1 (centres undefined),inconclusive: 13.2%,
Cc1cc(C)nc(N/N=C2/CCSc3ccc(F)cc32)n1,,"inconclusive: 35.5 µM [falling, single point]"
Cc1ccc(OCC(=O)N/N=C\c2cn(C)c3ccccc23)c([N+](=O)[O-])c1,inactive,
Cc1ccsc1C(=O)Nc1cc(C(C)(C)C)nn1-c1ccccc1,inconclusive: -15.1%,
COc1cc2nc(=S)n3[nH]c(CCn4nc(C)cc4C)nc3c2cc1OC,,"inconclusive: 0.58 µM [falling, partial curve, poor fit]"
Cc1nn(C)c(Oc2ccccc2)c1CCNS(=O)(=O)c1ccc(Cl)cc1,inactive,
COc1cccc(NC(=O)c2ncn[nH]2)c1,,"inconclusive: 7.31 µM [falling, partial curve, poor fit]"
O=C(Nc1cc(S(=O)(=O)N2CCOCC2)ccc1Cl)C(=O)c1c(-c2ccccc2)cc2ccccn12,inactive,
CCCCCn1c(=O)c(C(=O)c2ccccc2)nc2ccccc21,inactive,
Cc1cccc(C=Nc2ccc3c4c(cccc24)CC3)c1O,,"inconclusive: 16.4 µM [falling, single point]"
CSc1nc2ccsc2c(=O)n1-c1ccccc1,inconclusive: -1.19%,
N#Cc1cc2c(=O)n3ccccc3nc2n(CCN2CCOCC2)c1=O,inactive,
O=C(NCc1cccnc1)c1cc(-c2ccccc2)on1,inconclusive: -27%,
COc1ccc(C(=O)OC(C)C(=O)NC(C)CCc2ccccc2)c(OC)c1 (centres undefined),inactive,

SMILES,"activity change, negative = inhibition",Potency
O=C1COc2ccc(C(=O)COC(=O)c3ccccc3Cl)cc2N1,,"inconclusive: 25.9 µM [rising, partial curve, poor fit]"
CC(C)C(=O)Nc1cccc(NC(=S)NC(=O)c2ccc(Cl)cc2)c1,,"inconclusive: 35.5 µM [falling, single point]"
Cc1noc(C)c1COC(=O)c1cc(F)c(F)cc1Cl,inactive,
O=C(Nc1ccc(Cl)c(Cl)c1)c1cccc(S(=O)(=O)NCc2cccnc2)c1,,"inconclusive: 10.3 µM [rising, partial curve, poor fit]"
Cc1csc(NC(=O)c2ccc(Cn3nc(C)c(Br)c3C)o2)n1,inconclusive: -1.2%,
COc1cc(-c2noc(C)c2C#CC2(O)CCCCC2)cc(OC)c1OC,inconclusive: 7.68%,
COc1cccc(NC(=O)CN(C)C(=O)c2ccc(N3CCCCC3)c([N+](=O)[O-])c2)c1,inconclusive: -1.3%,
O=S(=O)(NCc1cccs1)c1ccccc1Cl,inconclusive: -4.47%,
Fc1ccc(C[n+]2csc3ccccc32)cc1,inactive,
COCCn1c(=S)[nH]c2cc(C(=O)NCCCN3CCOCC3)ccc2c1=O,inconclusive: 22.8%,
CC(C)CC(=O)NC(=S)Nc1cccc(NC(=O)c2ccccc2)c1,inactive,
CCCCC(=O)NCCNc1nc2c(c(=O)n(C)c(=O)n2C)n1Cc1ccc(F)cc1,inactive,
CCOC(=O)c1cc2cc(F)ccc2nc1C,inconclusive: 9.81%,
O=C(C1=C[C@H](c2ccccc2)C[C@H](OCc2ccc(CO)cc2)O1)N1CCN(Cc2ccccc2)CC1,inactive,
COc1ccc(-c2cccc(C(=O)Nc3ccccc3C)c2)cc1,,"inconclusive: 23.1 µM [falling, partial curve, poor fit]"
O=C(OCc1cccc(C(F)(F)F)c1)c1ccc[nH]c1=O,inactive,
CN1CCN(C(=O)CSc2ccc(C(F)(F)F)cc2[N+](=O)[O-])CC1,inactive,
Cn1c(SCC(=O)c2ccccc2F)nnc1C1CC1,,"inconclusive: 35.5 µM [falling, single point]"
COc1ccc(/C=N/NC(N)=S)cc1,inconclusive: 5.3%,
O=C(O)c1cc(N/N=C/c2ccncc2)ccc1Cl,,"inconclusive: 35.5 µM [rising, single point]"
COc1cc(OC)cc(-c2c(-c3cccs3)c3cc(-c4cnc(N)nc4)ccc3n2C)c1,,"inconclusive: 2.91 µM [falling, partial curve, poor fit]"
O=[N+]([O-])c1ccccc1/C=N/N1CCN(Cc2ccccc2)CC1,inactive,
Nc1ccccc1C(=O)NNC1=C(C(=O)C(F)(F)F)CCC1,,"inconclusive: 35.5 µM [falling, single point]"
CCOC(=O)c1ccc(NC(=O)c2nc[nH]c2C(=O)N[C@H](C)c2ccccc2)cc1,inconclusive: 1.22%,
COc1ccc(NC(=O)NCCN2CCc3ccccc3C2)cc1,,"inconclusive: 9.2 µM [rising, partial curve, poor fit]"
O=C(NCC(c1ccco1)N1CCCCC1)c1cccnc1 (centres undefined),inactive,
COc1ccc(N2CCN(C(=O)COC(=O)Cc3c(F)cccc3Cl)CC2)cc1,,"inconclusive: 32.6 µM [falling, partial curve, poor fit]"

# Nothing new here: entries from further up.
SMILES,"activity change, negative = inhibition",Potency
CCCCC(=O)NCCNc1nc2c(c(=O)n(C)c(=O)n2C)n1Cc1ccc(F)cc1,inactive,
CCOC(=O)c1cc2cc(F)ccc2nc1C,inconclusive: 9.81%,
O=C(C1=C[C@H](c2ccccc2)C[C@H](OCc2ccc(CO)cc2)O1)N1CCN(Cc2ccccc2)CC1,inactive,
COc1ccc(-c2cccc(C(=O)Nc3ccccc3C)c2)cc1,,"inconclusive: 23.1 µM [falling, partial curve, poor fit]"

# Reference: PubChem BioAssay AID493014 (National Center for Advancing Translational Sciences (NCATS), 2011)
